Source: patent US11369596B2, “Methods of treating a neurodegenerative disease in a mammal in need thereof” (Thomas Jefferson University, priority 2013, dated 2022)
Where two headings read alike, the source gives them in different places.

System: SOD1-G93A mice
Details: n=5-6

SMILES: Nc1nc2ccc(OC(F)(F)F)cc2s1 [riluzole, 6-(trifluoromethoxy)benzothiazol-2-amine]
- survival (P-gp-/-::SOD1-G93A riluzole-treated mice): 176.0±4.2
- survival (SOD1-G93A riluzole-treated mice): 162.0±2.51
